According to EP4545563A1, “ANTIBODIES TARGETING ITGA2 AND ANTIBODY-DRUG […]” (Foreseen Technology (Beijing) Co., Ltd., priority 2022, dated 2024):
Where a chain is given by its changes, count along the chain named. Results are given in words; binding and its absence hold for the method and conditions named. Some entries that bind do so weakly or less than the wild type.

By UniProt entry, the sequences of proteins in these tests, tags left out. Residues count along the entry.
UniProt P17301, residues 30-1132: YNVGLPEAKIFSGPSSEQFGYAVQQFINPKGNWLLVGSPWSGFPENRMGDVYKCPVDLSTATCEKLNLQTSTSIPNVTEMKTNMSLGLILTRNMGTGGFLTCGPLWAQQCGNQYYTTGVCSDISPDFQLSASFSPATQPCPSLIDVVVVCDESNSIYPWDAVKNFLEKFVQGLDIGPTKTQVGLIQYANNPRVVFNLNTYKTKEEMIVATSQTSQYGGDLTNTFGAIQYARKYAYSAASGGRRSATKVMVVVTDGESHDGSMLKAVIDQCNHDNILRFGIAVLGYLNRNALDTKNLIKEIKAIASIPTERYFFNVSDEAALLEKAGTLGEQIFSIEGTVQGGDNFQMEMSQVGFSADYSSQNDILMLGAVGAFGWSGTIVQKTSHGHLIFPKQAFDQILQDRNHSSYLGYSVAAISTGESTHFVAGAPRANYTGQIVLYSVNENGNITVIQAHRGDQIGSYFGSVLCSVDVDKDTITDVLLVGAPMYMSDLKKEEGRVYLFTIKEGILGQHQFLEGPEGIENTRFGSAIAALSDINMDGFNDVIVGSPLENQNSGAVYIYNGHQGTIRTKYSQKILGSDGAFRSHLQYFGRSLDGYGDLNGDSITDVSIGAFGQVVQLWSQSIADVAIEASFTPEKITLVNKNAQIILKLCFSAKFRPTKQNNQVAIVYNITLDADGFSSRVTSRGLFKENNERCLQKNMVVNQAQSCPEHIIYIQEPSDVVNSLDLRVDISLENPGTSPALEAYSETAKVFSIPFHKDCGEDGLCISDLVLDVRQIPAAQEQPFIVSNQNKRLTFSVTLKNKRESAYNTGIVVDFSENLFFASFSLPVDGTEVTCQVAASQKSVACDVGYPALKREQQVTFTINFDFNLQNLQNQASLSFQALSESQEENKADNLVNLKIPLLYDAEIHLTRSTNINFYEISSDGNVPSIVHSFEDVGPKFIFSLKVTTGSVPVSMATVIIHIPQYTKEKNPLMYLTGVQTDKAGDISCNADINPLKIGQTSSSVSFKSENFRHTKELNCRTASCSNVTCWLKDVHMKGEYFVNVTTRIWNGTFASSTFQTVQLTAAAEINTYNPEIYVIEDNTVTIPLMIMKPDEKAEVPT

B1: Humanized antibody FS002-C11 (antibody, human IgG1, kappa, V domains shown)
VH: RLQLQESGPRLVKPSETLSLTCSVSGGSISSRNHYWAWIRQPPGKGLEWIGYIYYSGSTYYNPSLKSRVTISVDTSKNQFSLKLSSVTAADTAVYYCARVGLLLRDFDYWGQGTLVTVSS
VL: DIQMIQSPSSVSASVGDRVTITCRASQGISNSLAWYQHKPGTTPKLLIYAASSLQGGVPSRFSGSSSETDFTLTISSLQPEDFATYYCQQANSFPITFGQGTRLDIKR
B2: Humanized antibody FS002-A15 (antibody, human IgG1, kappa, V domains shown)
VH: RLQLQESGPGLVKPSQTLSLTCTVSGGSISSGGYYWSWIRQHPGKGLEWIGYIYYSGSTYYNPSLKSRVTISVDTSKNQFSLKLSSVTAADTAVYYCARATIYGYFDYWGQGTLVTVSS
VL: EIVLTQSPATLPLSPGERATLSCRASQSVGFYLAWYQQKPGQPPRLLFYDASKRATGIPARFSASGSGTDFTLTISGLEPEDFAVYYCQHRISWPLTFGQGTKVEVKR
B3: Humanized antibody FS002-A72 (antibody, human IgG1, kappa, V domains shown)
VH: QVQLVDSGGGLVQPGGSLRLSCVASGFAFSNYEMNWVRQAPGKGLEWVSYISSSSSYTNYADSVKGRFTISRDNAKNSLYLQMNSLRAEDTAVYYCARAQVRDAFDIWGQGTTVTVSS
VL: IVMTQSPVTLSVSPGDSATLSCRASQSVDKNLAWYQQKTGQAPRLLIYGAATRATGIPARFSGSGSGTEFTLTISSLRSEDFAVYYCQQYRNWPWTFGLGTKVEIKR
B4: Humanized antibody FS002-A36 (antibody, human IgG1, kappa, V domains shown)
VH: QVQLQESGPGLVKPSQTLSLTCTVSGGSISSGGYYWSWIRQHPGKGLEWIGYIYYSGSTYYNPSLKSRVTISVDTSKNQFSLKLSSVTAADTAVYYCARVRLLGGGFDIWGQGTTVTVSS
VL: EIVLTQSPATLSLSPGERATLSCRASQSVSTYLAWYQQKPGQAPRLLIYDTSIRATGIPARFSGSGSGTDFTLTISSLEPEDFAVYYCQQRSNWPLTFGGGTKVEIKR
B5: Humanized antibody FS002-A5 (antibody, human IgG1, kappa, V domains shown)
VH: QVQLQDSGPGLVKPSQTLSLTCTVSGGSISSGGYYWSWIRQHPGKGLEWIGYIYYSGSTYYNPSLKSRVTISVDTSKNQFSLKLSSVTAADTAVYYCARVPVPLVGAFDIWGQGTMVTVSS
VL: B4 VL with T31S, Y32N, A34G, R45S, D50G, T51A, I53N, S92D, N93T
B6: Humanized antibody FS002-B27 (antibody, human IgG1, kappa, V domains shown)
VH: QVQLVQSGAEVKKPGSSVKVSCKASGGTFSSYAISWVRQAPGQGLEWMGRIIPILGIANYAQKFQGRVTITADKSTSTAYMELSSLRSEDTAVYYCARAEGSSWYYFDYWGQGTLVTVSS
VL: NIQLTQSPSSVSASVGDRVTITCRASQGFSRWLAWYQQKPGKAPKLLIYGASSLQSGVPSRFSGSGSGTDFTLTISSLQPEDFATYYCQQANSFPLTFGGGTKLEIKR
B7: Humanized antibody FS002-A10 (antibody, human IgG1, kappa, V domains shown)
VH: QVQLQQSGPGLVKPSQTLSLTCAISGDSVSSDSAAWNWIRQSPSRGLEWLGRTYYRSKWYNDYAVSVKSRITINPDTSKNQFSLQLNSVTSDDTAVYYCARGSWAAPWLWGQGTLVTVSS
VL: NIQLTQSPPFLSASVGDRVTITCRASQDISSFLAWYQQKPGKAPNLLIHAATTLQSGVPSRFSGSGSGTEFTLTISSLRPEDFATYYCQQLHTYPITFGQGTRLEIKR
B8: Humanized antibody FS002-C241 (antibody, human IgG1, lambda, V domains shown)
VH: RLQLQESGPGLVKPSETLSLTCTVSGGSISSSSYYWGWIRQPPGKGLEWIGSIYYSGSTYYNPSLKSRVTISVDTSKNQFSLKLSSVTAADTAVYYCARRYSYGRDAFDIWGQGTMVTVSS
VL: QSALTQPASVSGSPGQSITISCSGTSSDIGRYNYVSWYQQHPGKAPKLLIFDVSNRPSGVSNRFSGSKSGNTASLTISGLQAEDEADYYCSSYTSTVPYVFGTGTRVAVQG
B9: Humanized antibody FS002-C15 (antibody, human IgG1, kappa, V domains shown)
VH: QLQLQESGPGLVKPSETLSLTCTVSGGSISSSSYYWGWIRQPPGKGLEWIGSIYYSGSTYYNPSLKSRVTISVDTSKNQFSLKLSSVTAADTAVYYCARLTIFGVVLYWGQGTLVTVSS
VL: EIVLTQSPATLSLSPGERATLSCQASQTFSDYLAWYQQKPGQAPRLLIYDASTRATGIPARFSGSGSGTDFTLTISSLEPEDFAVYYCQQRSHWPPGYTFGQGTRVEIKR
B10: Humanized antibody FS002-C153 (antibody, human IgG1, lambda, V domains shown)
VH: QVQLQQWGAELVKPGASVKLSCTASGFNIKDTYMHWVKQRPEQGLEWIGRIDPANGNTKYDPKFQGKATITADTSSNTAYLQLSSLTSEDTAVYYCARSYYRYDGYFDVWGAGTMVTVSS
VL: QSALTQPASVSGSPGQSITISCTGTSSDVGGYNYVSWYQQHPGKAPKLMIYDVSNRPSGVSNRFSGSKSGNTASLTISGLQAEDEADYYCSSFTTITTRVFGGGTKLTVLG
B11: Humanized antibody FS002-C417 (antibody, human IgG1, kappa, V domains shown)
VH: EVQLVESGGVVVQPGGSLRLSCAASGFTFDDYTMHWVRQAPGKGLEWVSLISWDGGSTYYADSVKGRFTISRDNAKNTLYLQMNSLRAEDTAVYYCARDTGYAMDVWGQGTMVTVSS
VL: NIQMTQSPSSLSASVGDRVTITCRASQSISSYLNWYQQKPGKAPKLLIYAASSLQSGVPSRFSGSGSGTDFTLTISSLQPEDFASYYCQQSYSSWAFGQGTKVEIKR

Target: ITGA2-His (human) (UniProt P17301)
Test: ELISA on coated ITGA2-His

| binding | Binder |
| --- | --- |
| binds | B1 |
| binds | B2 |
| binds | B3 |
| binds | B4 |
| binds | B5 |
| binds | B6 |
| binds | B7 |
| binds | B8 |
| binds | B9 |
| binds | B10 |
| binds | B11 |
